{
  "source": "paper PMC5656798",
  "molecular_target": "HIV Vif Δ12 (HIV-1) (UniProt P12504)",
  "test": "velocity sedimentation through sucrose gradients; 293T lysates (50 mM NaCl, 5 mM Na2EDTA, 150 mM Tris·HCl pH 7.6, 1 % Triton X-100), 10–20–30–40–50 % sucrose step gradient, 60 min at 163 000g; fractions blotted with anti-HA; Vif expressed with an empty vector, CBF-β or CBF-β F68D; also in CBF-β knockdown 293T cells",
  "note": "These are yes or no findings as the source states them, for the method shown. Some entries that bind do so weakly or less than the wild type.",
  "data": [
    {"substance": "HIV Vif Δ12 (from UniProt P12504 13-192) (domain or fragment)", "values": [
      {"measurement": "binding", "result": "binds"}
    ]}
  ]
}
